Data as given in PubChem BioAssay AID1259405 (NCATS, 2018).

- Aim: 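Knock-downs that lift recombinant protein yield in hamster ovary cells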 (primary screen)
- Cells: Chinese hamster CHO-K1 ovary cells with stable secreted eGFP expression
- Knock-down reagent: single siRNA against mouse genes, 0.8 pmol siRNA per well (2 µl of 400 nM stock)
- Time to read-out: 3 days
- Measurement: 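Percent of the per-plate non-targeting control median for intracellular GFP per well by laser scanning cytometry and for cell viability by ATP luminescence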
- Direction: GFP, % of control: higher = more GFP per well, higher productivity; viability (ATP), % of control: higher = more viable cells (more ATP)
- Rule for the call: 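Called active when intracellular GFP, relative to negative control, is at or above 120%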
Shown is a random part of about 50,000 reagents tested. Of all reagents, about 4,000 (8%) are marked active. 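Mouse siRNA library applied to hamster cells; one well for each siRNA.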 The numbers tell different reagents against one gene apart. No sequences are given here.

gene,reagent no.,"GFP, % of control","viability (ATP), % of control",call
H3c8,1,142,107,active
H3c8,2,75.9,90.5,inactive
H3c8,3,53.2,54.8,inactive
Esrp1,1,82.2,77.7,inactive
Esrp1,2,97.8,85.5,inactive
Esrp1,3,71.5,53.5,inactive
Erg28,1,97.5,100,inactive
Erg28,2,70.9,45.2,inactive
Erg28,3,125,97.8,active
Arl6ip4,1,53.4,61.4,inactive
Arl6ip4,2,54.9,66,inactive
Arl6ip4,3,90.3,95.8,inactive
Negr1,1,54.8,67.2,inactive
Negr1,2,98.8,90.1,inactive
Psg23,1,79.7,45.6,inactive
Psg23,2,79.1,72.5,inactive
Psg23,3,82.9,89.3,inactive
Myf6,1,131,100,active
Myf6,2,44.5,43.5,inactive
Myf6,3,47.3,115,inactive
Fut9,1,79.6,99.3,inactive
Fut9,2,114,153,inactive
Fut9,3,59.7,92.3,inactive
Or51g1,1,40.6,66.9,inactive
Or51g1,2,69.8,79.3,inactive
Or51g1,3,88.1,91.4,inactive
Nop10,1,74.9,67.3,inactive
Nop10,2,97.2,83.6,inactive
Nop10,3,90.2,110,inactive
Adpgk,1,51,68.6,inactive
Adpgk,2,98.5,69.9,inactive
Adpgk,3,108,110,inactive
Pcdhb11,1,93.7,85.8,inactive
Pcdhb11,2,131,95.7,active
Pcdhb11,3,82.5,80.6,inactive
Zbtb7c,1,54.9,59.1,inactive
Zbtb7c,2,114,101,inactive
Zbtb7c,3,6.9,6.21,inactive
Dhfr,1,63.6,112,inactive
Dhfr,2,96.9,90.6,inactive
Taf3,1,78.4,75.2,inactive
Taf3,2,90.1,107,inactive
Taf3,3,135,122,active
Nr4a1,1,89.3,69.7,inactive
Nr4a1,2,59.2,69.7,inactive
Nr4a1,3,69.5,73.7,inactive
Gpr31b,1,71.3,63.1,inactive
Gpr31b,2,85.9,55.8,inactive
Gpr31b,3,69.8,45.7,inactive
Rerg,1,156,88.6,active
Rerg,2,125,76.4,active
Rerg,3,98.1,94.9,inactive
Hrnr,1,73.2,63.6,inactive
Hrnr,2,54.9,49.5,inactive
Hrnr,3,87.9,89.9,inactive

Called active (from the list above):
gene,reagent no.,"GFP, % of control","viability (ATP), % of control",call
H3c8,1,142,107,active
Erg28,3,125,97.8,active
Myf6,1,131,100,active
Pcdhb11,2,131,95.7,active
Taf3,3,135,122,active
Rerg,1,156,88.6,active
Rerg,2,125,76.4,active

More results follow.
gene,reagent no.,"GFP, % of control","viability (ATP), % of control",call
Relt,1,68.9,62.7,inactive
Relt,2,63.1,71.9,inactive
Relt,3,75.8,61.4,inactive
Plekha5,1,62.4,65.4,inactive
Plekha5,2,85.4,79,inactive
Plekha5,3,116,80.9,inactive
Pim2,1,41.9,45.6,inactive
Or10u3,1,34.6,36.3,inactive
Or10u3,2,37.4,55.1,inactive
Or10u3,3,132,76.5,active
Ankfn1,1,18.8,24.4,inactive
Ankfn1,2,76.4,71.9,inactive
Ankfn1,3,34.4,82.2,inactive
Or8b36,1,82.4,87.8,inactive
Or8b36,2,81.2,72.8,inactive
Or8b36,3,127,109,active
Fam162a,1,46.6,57.2,inactive
Fam162a,2,41.2,82.7,inactive
Fam162a,3,65.2,78.9,inactive
Plxnb1,1,63.2,58.3,inactive
Plxnb1,2,83.7,81.1,inactive
Plxnb1,3,96.3,87.5,inactive
Ces2e,1,86.2,84.6,inactive
Ces2e,2,116,96,inactive
Ces2e,3,70.5,87,inactive
Wdr6,1,94.6,60.2,inactive
Wdr6,2,86.5,77,inactive
Wdr6,3,86.7,101,inactive
Dhx35,1,72.4,86.3,inactive
Dhx35,2,96.9,92.3,inactive
Dhx35,3,56.9,84.7,inactive
Pld2,1,92.5,80.7,inactive
Pld2,2,80,79.9,inactive
Pld2,3,83,92.1,inactive
Fam178b,1,111,90.3,inactive
Fam178b,2,109,99.6,inactive
Fam178b,3,120,140,inactive
Ttll6,1,123,84.8,active
Ttll6,2,117,111,inactive
Ttll6,3,64.9,49.2,inactive
Sirt2,1,80,80.3,inactive
Sirt2,2,75.6,65.4,inactive
Thnsl2,1,48.3,44.4,inactive
Thnsl2,2,77.6,98,inactive
Thnsl2,3,53.1,43.4,inactive
Mrpl24,1,66.2,47,inactive
Mrpl24,2,92.8,45.2,inactive
Mrpl24,3,66.5,82.1,inactive
Odad3,1,65.4,44.2,inactive
Odad3,2,86.9,71.6,inactive
Odad3,3,108,86.6,inactive
Slc39a12,1,96.2,79,inactive
Slc39a12,2,81.5,63,inactive
Slc39a12,3,67.9,61.5,inactive
